Test results: publication PMC9021453
No constants are given. Whether binding was seen depends on the method and setting. Binding seen in cells or lysates may run through a third protein. Some binding calls cover weakened binding; strength is not graded here.

Chains of the proteins cited; added tags and fusions are not shown. Residues count along the entry.
UniProt Q95LA9, residues 21-784: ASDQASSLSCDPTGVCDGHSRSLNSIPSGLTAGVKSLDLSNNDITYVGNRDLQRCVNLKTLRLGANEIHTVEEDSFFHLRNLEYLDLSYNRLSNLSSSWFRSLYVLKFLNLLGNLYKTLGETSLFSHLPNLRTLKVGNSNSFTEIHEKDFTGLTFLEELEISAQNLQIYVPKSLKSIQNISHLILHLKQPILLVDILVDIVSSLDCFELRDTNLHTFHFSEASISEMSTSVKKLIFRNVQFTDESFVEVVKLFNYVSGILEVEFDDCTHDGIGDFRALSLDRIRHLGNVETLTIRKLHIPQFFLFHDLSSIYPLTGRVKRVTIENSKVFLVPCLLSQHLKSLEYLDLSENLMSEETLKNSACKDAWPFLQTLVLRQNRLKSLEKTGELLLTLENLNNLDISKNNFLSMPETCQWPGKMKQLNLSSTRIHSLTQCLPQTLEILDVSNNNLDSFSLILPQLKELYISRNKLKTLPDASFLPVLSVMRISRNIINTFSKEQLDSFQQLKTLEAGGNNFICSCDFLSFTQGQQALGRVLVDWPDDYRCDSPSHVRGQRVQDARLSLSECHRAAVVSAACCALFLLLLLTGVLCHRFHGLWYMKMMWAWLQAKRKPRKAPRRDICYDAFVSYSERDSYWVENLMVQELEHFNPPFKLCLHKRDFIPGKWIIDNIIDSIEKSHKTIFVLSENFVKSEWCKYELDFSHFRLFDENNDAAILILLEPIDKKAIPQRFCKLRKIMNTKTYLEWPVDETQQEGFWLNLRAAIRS

Target: Toll-like receptor 2 (bovine (endogenous in BMECs)) (UniProt Q95LA9)
Experiment: co-IP; TLR2 primary antibody and protein A/G agarose on total protein of BMECs; cells co-cultured with M. bovis 39YC, PG45 or HB0801 for 16 h (TLR2/TLR6) or 20 h (TLR2/TLR1), control and LPS groups beside them; Western blot for TLR1 and TLR6

B1: Toll-like receptor 6 (receptor, UniProt Q704V6 24-793)
chain: TIIQFSDESEFVVDMSKTSLIHVPKDLPPKTKVLDLSQNNISELHLSDISFLSGLRVLRLSHNRIQGLDISIFKFNHDLEYLDLSHNQLQKISCHPITTTLKHLDLSFNDFDALPICKEFGNLTQLNFLGLSATKLQQLDLLPIAHLHLSCILLDLEDYMKENKKESLQILNTKKLHLVFHPNSFFSVQVDISANSLGCLQLTNIKLNDYNCQVLLKFLSGLTGGPTLLNFTLNHVETTWKCLVKVFQFLWPKPIEYLNIYNLTIVESIDEEVFTYYKTTLKALKIEHITNKVFIFSQTALYTVFSEMNILMLTISDTRFIHMLCPQEPSTFKFLNFTQNSFTDSVFQNCDTLARLETLILQKNELKDLFKTSLMTKDMLSLETLDVSWNSLEYDRSNGNCSWVGSIVVLNLSSNALTDSVFRCLPPRIKVLDLHNNRIRSIPKDVTGLETLQELNLASNSLAHLPGCGIFSSLSILIIEHNSISNPSADFFQSCQKIRSLKAGNNPFQCSCELRDFIQSVGQVSSDVVEGWPESYKCDYPESYKGTPLKDFQVSELSCNTALLIITIVVPGLVLAVAVTVLCIYLDLPWYLRMVCQWTQTRRRARNVPLEELQRTLQFHAFISYSEHDSAWVKNELIPNLEKEDIRICLHERNFVAGKSIVENIINCIEKSYKSIFVLSPNFVQSEWCHYELYFAHHNLFHEGSDNLILILLDPIPQYSIPSSYHKLRALMAQRTYLEWPKEKSKHGLFWANLRASINIKLMEKAAEIH
With B1 the binding was “binds”.
